Results deposited as PubChem BioAssay AID1508597 (Cure First, 2020)

Test: 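Survival screen with siRNA in ovarian cancer cells derived from patients, with or without rucaparib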 (primary screen)
Cells: human ovarian carcinoma lines grown from tumours: OCI-P5x (papillary serous) and OCI-C5x (clear cell)
Reagents: siRNA pool against human genes, 1.25 pmol siRNA per well
Timing: 72 h or 96 h, depending on the cell culture
Challenge: rucaparib 20 µM (about IC30) or vehicle, present until read-out
Measurement: 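Luminescent ATP-based viability assay read 72 or 96 h after transfection, depending on culture, given as normalised percent viability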
Reading the numbers: viability, normalised: higher = more viable cells remaining
Hit rule: 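Active when normalised viability falls below 80 percent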
Calls: active = viability under 80%; inactive = viability 80% or more
This is an unselected part of about 2,100 reagents tested. 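Calls flag viability under 80% in either arm, not effects specific to rucaparib; the reference for percent is not stated.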 No sequences are given here. The record does not give: the 100% reference.

no.	gene	rucaparib or vehicle	cell line	technical replicate	viability, normalised (%)	call
1	FAM91A1 (GeneID 157769)	Rucaparib	OCI-C5x (clear cell)	1	68.9	active
2	FAM91A1 (GeneID 157769)	Rucaparib	OCI-C5x (clear cell)	2	79.1	active
3	FAM91A1 (GeneID 157769)	Rucaparib	OCI-C5x (clear cell)	3	64	active
4	FAM91A1 (GeneID 157769)	Rucaparib	OCI-P5x (serous)	1	46.3	active
5	FAM91A1 (GeneID 157769)	Rucaparib	OCI-P5x (serous)	2	53.8	active
6	FAM91A1 (GeneID 157769)	Rucaparib	OCI-P5x (serous)	3	57.5	active
7	FAM91A1 (GeneID 157769)	Vehicle	OCI-C5x (clear cell)	1	72.9	active
8	FAM91A1 (GeneID 157769)	Vehicle	OCI-C5x (clear cell)	2	62.7	active
9	FAM91A1 (GeneID 157769)	Vehicle	OCI-C5x (clear cell)	3	84.7	inactive
10	FAM91A1 (GeneID 157769)	Vehicle	OCI-P5x (serous)	1	48.8	active
11	FAM91A1 (GeneID 157769)	Vehicle	OCI-P5x (serous)	2	59.4	active
12	FAM91A1 (GeneID 157769)	Vehicle	OCI-P5x (serous)	3	67.8	active
13	RBL2 (GeneID 5934)	Rucaparib	OCI-C5x (clear cell)	1	53.7	active
14	RBL2 (GeneID 5934)	Rucaparib	OCI-C5x (clear cell)	2	49.9	active
15	RBL2 (GeneID 5934)	Rucaparib	OCI-C5x (clear cell)	3	39.6	active
16	RBL2 (GeneID 5934)	Rucaparib	OCI-P5x (serous)	1	53.6	active
17	RBL2 (GeneID 5934)	Rucaparib	OCI-P5x (serous)	2	71	active
18	RBL2 (GeneID 5934)	Rucaparib	OCI-P5x (serous)	3	62.1	active
19	RBL2 (GeneID 5934)	Vehicle	OCI-C5x (clear cell)	1	52	active
20	RBL2 (GeneID 5934)	Vehicle	OCI-C5x (clear cell)	2	51.4	active
21	RBL2 (GeneID 5934)	Vehicle	OCI-C5x (clear cell)	3	43.9	active
22	RBL2 (GeneID 5934)	Vehicle	OCI-P5x (serous)	1	74.4	active
23	RBL2 (GeneID 5934)	Vehicle	OCI-P5x (serous)	2	90.2	inactive
24	RBL2 (GeneID 5934)	Vehicle	OCI-P5x (serous)	3	80.3	inactive

Part of the list above in another layout.
{"gene":"FAM91A1 (GeneID 157769)","rucaparib or vehicle":"Vehicle","cell line":"OCI-P5x (serous)","technical replicate":"3","viability, normalised (%)":67.8,"call":"active"}
{"gene":"RBL2 (GeneID 5934)","rucaparib or vehicle":"Rucaparib","cell line":"OCI-C5x (clear cell)","technical replicate":"1","viability, normalised (%)":53.7,"call":"active"}
{"gene":"RBL2 (GeneID 5934)","rucaparib or vehicle":"Rucaparib","cell line":"OCI-C5x (clear cell)","technical replicate":"2","viability, normalised (%)":49.9,"call":"active"}

The results go on:
no.	gene	rucaparib or vehicle	cell line	technical replicate	viability, normalised (%)	call
25	RP2 (GeneID 6102)	Rucaparib	OCI-C5x (clear cell)	1	47.2	active
26	RP2 (GeneID 6102)	Rucaparib	OCI-C5x (clear cell)	2	48.5	active
27	RP2 (GeneID 6102)	Rucaparib	OCI-C5x (clear cell)	3	38.4	active
28	RP2 (GeneID 6102)	Rucaparib	OCI-P5x (serous)	1	40.8	active
29	RP2 (GeneID 6102)	Rucaparib	OCI-P5x (serous)	2	45.9	active
30	RP2 (GeneID 6102)	Rucaparib	OCI-P5x (serous)	3	54.8	active
31	RP2 (GeneID 6102)	Vehicle	OCI-C5x (clear cell)	1	27.6	active
32	RP2 (GeneID 6102)	Vehicle	OCI-C5x (clear cell)	2	39.7	active
33	RP2 (GeneID 6102)	Vehicle	OCI-C5x (clear cell)	3	31.3	active
34	RP2 (GeneID 6102)	Vehicle	OCI-P5x (serous)	1	52.9	active
35	RP2 (GeneID 6102)	Vehicle	OCI-P5x (serous)	2	57.6	active
36	RP2 (GeneID 6102)	Vehicle	OCI-P5x (serous)	3	48.7	active
37	TYK2 (GeneID 7297)	Rucaparib	OCI-C5x (clear cell)	1	62.2	active
38	TYK2 (GeneID 7297)	Rucaparib	OCI-C5x (clear cell)	2	60.7	active
39	TYK2 (GeneID 7297)	Rucaparib	OCI-C5x (clear cell)	3	68.1	active
40	TYK2 (GeneID 7297)	Rucaparib	OCI-P5x (serous)	1	107	inactive
41	TYK2 (GeneID 7297)	Rucaparib	OCI-P5x (serous)	2	104	inactive
42	TYK2 (GeneID 7297)	Rucaparib	OCI-P5x (serous)	3	90.5	inactive
43	TYK2 (GeneID 7297)	Vehicle	OCI-C5x (clear cell)	1	71.4	active
44	TYK2 (GeneID 7297)	Vehicle	OCI-C5x (clear cell)	2	62.1	active
45	TYK2 (GeneID 7297)	Vehicle	OCI-C5x (clear cell)	3	87.3	inactive
46	TYK2 (GeneID 7297)	Vehicle	OCI-P5x (serous)	1	63.8	active
47	TYK2 (GeneID 7297)	Vehicle	OCI-P5x (serous)	2	82	inactive
48	TYK2 (GeneID 7297)	Vehicle	OCI-P5x (serous)	3	87.3	inactive
